The list does not hold the whole screen: it is rich in T/C values a quarter to a half above the control, in often repeated tests (any T/C) and in doses without a T/C. Further doses and runs are listed elsewhere. T/C gives the treated animals as a percentage of the vehicle group. Some entries give survivors of the animals treated and no T/C: the source holds a T/C of zero for them, seemingly a mark for toxic or unscored doses. Some survivor counts are full or nearly so, which does not show that the dose was tolerated: survival well below the control is almost never listed, so the zero probably covers shortened survival too. Counts of survivors are from the toxicity check (mostly the fifth day) where no day follows; animals may have died later. Schedules are NCI's codes, read here as Q, the interval in days (D) or hours (H), X, the number of doses. Some entries hold several experiments; their values stand side by side, smallest first. Where survival is the endpoint, this PubChem deposit counts one and a half times the control or more as active, and values a quarter to a half above the control carry no call in these data; other NCI protocols may use other cut-offs. Counts like (3×) count equal records among those shown. Some T/C values carry the count of animals alive at the toxicity check (mostly the fifth day); where none is given, no animal had died by that day.

For this experiment, the system named is L1210 leukemia ip in BDF1 mice, survival T/C. Kind of experiment: NCI In Vivo Anticancer Drug Screen. Data for tumor model L1210 Leukemia (intraperitoneal) in B6D2F1 (BDF1) mice. As to conditions: T/C endpoint: mean survival time, higher T/C = longer survival.
Where [1] appears, read: dose: 200.0 mg/kg/injection, schedule: Q04DX002 (ip), vehicle: saline.
[2] abbreviates: dose: 400.0 mg/kg/injection, schedule: Q04DX003 (ip), vehicle: saline with Tween-80.
Where [3] appears, read: dose: 400.0 mg/kg/injection, schedule: Q01DX009 (ip), vehicle: Klucel (hydroxypropylcellulose) (HPC).
The mark [4] stands for this setting: dose: 400.0 mg/kg/injection, schedule: Q04DX002 (ip), vehicle: saline with Tween-80.
The mark [5] stands for this setting: dose: 400.0 mg/kg/injection, schedule: Q01DX009 (ip), vehicle: saline.
Where [6] appears, read: dose: 1.56 mg/kg/injection, schedule: Q04DX002 (ip), vehicle: other.

As to `CCC[CH2][Pb]([Cl])([Cl])[CH2]CCC`, the survivor count by setting is: (dose: 10.0 mg/kg/injection, schedule: Q01DX001 (ip), vehicle: carboxymethylcellulose (CMC)) 0 of 4; (dose: 25.0 mg/kg/injection, schedule: Q01DX001 (ip), vehicle: carboxymethylcellulose (CMC)) 1 of 4; (dose: 50.0 mg/kg/injection, schedule: Q01DX001 (ip), vehicle: carboxymethylcellulose (CMC)) 0 of 4 and 3 of 4; (dose: 80.0 mg/kg/injection, schedule: Q01DX001 (ip), vehicle: carboxymethylcellulose (CMC)) 0 of 4; (dose: 100.0 mg/kg/injection, schedule: Q01DX001 (ip), vehicle: carboxymethylcellulose (CMC)) 0 of 4; (dose: 200.0 mg/kg/injection, schedule: Q01DX001 (ip), vehicle: carboxymethylcellulose (CMC)) 0 of 4 and 1 of 4. Besides, for the setting “dose: 400.0 mg/kg/injection, schedule: Q01DX001 (ip), vehicle: carboxymethylcellulose (CMC)”, the survivor count is listed as 0 of 4.
On to `C/C(=N/OC(=O)N(C)C)c1cccc(Cl)c1`, for which the T/C (dose: 100.0 mg/kg/injection, schedule: Q01DX001 (ip), vehicle: saline) is 139 % of control [5 of 6 alive].
Consider `CCCNC(c1ccccc1)=[N+]1CCCCC1`, for which the survivor count is listed as 0 of 3 (dose: 50.0 mg/kg/injection, schedule: Q04DX002 (ip), vehicle: saline); 0 of 3 (dose: 100.0 mg/kg/injection, schedule: Q04DX002 (ip), vehicle: saline); 0 of 3 under setting [1]; 0 of 3 (dose: 400.0 mg/kg/injection, schedule: Q04DX002 (ip), vehicle: saline).
Consider `CSc1ncnc2n[nH]c(Br)c12`, for which the survivor count (dose: 200.0 mg/kg/injection, schedule: Q01DX005 (ip), vehicle: saline) is on record as 5 of 5.
Consider `O=S1(=O)CCC2C1C1(Cl)C(Cl)=C(Cl)C2(Cl)C1(Cl)Cl` (configuration not stated), for which the survivor count (dose: 100.0 mg/kg/injection, schedule: Q04DX003 (ip), vehicle: saline with Tween-80) is given as 2 of 6; the survivor count (dose: 200.0 mg/kg/injection, schedule: Q04DX003 (ip), vehicle: saline with Tween-80) is reported as 0 of 6; the survivor count under setting [2] is recorded as 0 of 6.
As to `CCCCCCC[As](C)(=O)O`, the survivor count is, setting by setting: (dose: 100.0 mg/kg/injection, schedule: Q01DX009 (ip), vehicle: Klucel (hydroxypropylcellulose) (HPC)) 0 of 6; (dose: 200.0 mg/kg/injection, schedule: Q01DX009 (ip), vehicle: Klucel (hydroxypropylcellulose) (HPC)) 0 of 6; under setting [3], 0 of 6.
Turning to `CC(=O)C(C=NCCN=CC(C(C)=O)C(C)=O)C(C)=O.[Ni]`, under setting [4], the survivor count is 3 of 3.
`CCc1cc2c(cc1C(=O)CBr)C(C)(C)CCC2(C)C`: the survivor count is 3 of 6 (dose: 25.0 mg/kg/injection, schedule: Q01DX009 (ip), vehicle: saline with Tween-80) and 1 of 6 (dose: 50.0 mg/kg/injection, schedule: Q04DX003 (ip), vehicle: saline).
Regarding `CCCCCCCCSC(=O)N(C(C)C)C(C)C`, under setting [1], the T/C was 141 % of control [2 of 3 alive].
As for `N#Cc1ncc(-c2ccc(Cl)cc2)nc1Cl`, the survivor count under setting [5] is on record as 5 of 6.
In the case of `COC(=O)/C=C1/Nc2cc(Cl)c(OC)cc2C(=O)NC1=O`, under “dose: 300.0 mg/kg/injection, schedule: Q04DX003 (ip), vehicle: other”, the survivor count is recorded as 5 of 6.
Consider `Cc1cccc(OCCOC(=O)Nc2ccc(C)cc2[N+](=O)[O-])c1`, for which the survivor count (dose: 200.0 mg/kg/injection, schedule: Q01DX009 (ip), vehicle: saline with Tween-80) is reported as 3 of 3.
As for `CC1(C)C=Cc2ccccc21`, under setting [2], the survivor count was 4 of 6.
Consider `CCCCCCCCCCCCCCCCCC[N+](C)(C)Cc1cc(=O)c(O)co1`, for which the survivor count runs as follows: (dose: 25.0 mg/kg/injection, schedule: Q01DX009 (ip), vehicle: saline) 3 of 3; (dose: 50.0 mg/kg/injection, schedule: Q01DX009 (ip), vehicle: saline) 2 of 3; (dose: 100.0 mg/kg/injection, schedule: Q01DX009 (ip), vehicle: saline) 0 of 3 and 3 of 6; (dose: 200.0 mg/kg/injection, schedule: Q01DX009 (ip), vehicle: saline) 0 of 6; under setting [5], 0 of 6.
Turning to `C/C=C\C#N`, the survivor count by setting is: under setting [5], 0 of 6; (dose: 400.0 mg/kg/injection, schedule: Q04DX003 (ip), vehicle: saline) 0 of 6.
As for `CC1(N=C(N)CSSCC(N)=NC2(C)CCC(C(C)(C)C)CC2)CCC(C(C)(C)C)CC1` (configuration not stated), the T/C is, setting by setting: (dose: 1.56 mg/kg/injection, schedule: Q01DX009 (ip), vehicle: carboxymethylcellulose (CMC)) 126 % of control [4 of 6 alive]; under setting [6], 101 % of control (2×); (dose: 3.12 mg/kg/injection, schedule: Q04DX002 (ip), vehicle: other) 90 and 93 % of control (3×); (dose: 6.25 mg/kg/injection, schedule: Q04DX002 (ip), vehicle: other) 90, 93, 98, 118, 128 % of control. The survivor count was 1 of 3 and 2 of 6 under setting [6]; 3 of 6 (dose: 6.25 mg/kg/injection, schedule: Q01DX009 (ip), vehicle: other); 0 of 6 (dose: 8.0 mg/kg/injection, schedule: Q01DX001 (ip), vehicle: other); 3 of 6 (dose: 12.5 mg/kg/injection, schedule: Q01DX009 (ip), vehicle: other); 1 of 3 (dose: 12.5 mg/kg/injection, schedule: Q04DX002 (ip), vehicle: other); 0 of 6 (dose: 16.0 mg/kg/injection, schedule: Q01DX001 (ip), vehicle: other). The survivor count by setting is: (dose: 20.0 mg/kg/injection, schedule: Q04DX003 (ip), vehicle: other) 0 of 6; (dose: 25.0 mg/kg/injection, schedule: Q01DX009 (ip), vehicle: other) 0 of 3 and 0 of 6; (dose: 25.0 mg/kg/injection, schedule: Q04DX002 (ip), vehicle: other) 0 of 3; (dose: 32.0 mg/kg/injection, schedule: Q01DX001 (ip), vehicle: other) 0 of 6; (dose: 40.0 mg/kg/injection, schedule: Q04DX003 (ip), vehicle: other) 0 of 6; (dose: 50.0 mg/kg/injection, schedule: Q04DX002 (ip), vehicle: carboxymethylcellulose (CMC)) 0 of 3 and 3 of 6. Also, the survivor count by setting is: (dose: 100.0 mg/kg/injection, schedule: Q04DX002 (ip), vehicle: carboxymethylcellulose (CMC)) 0 of 3 and 0 of 6; (dose: 200.0 mg/kg/injection, schedule: Q04DX002 (ip), vehicle: carboxymethylcellulose (CMC)) 0 of 3 and 1 of 6; (dose: 400.0 mg/kg/injection, schedule: Q04DX002 (ip), vehicle: carboxymethylcellulose (CMC)) 0 of 3 and 0 of 6.
Take `C/C(CC(C)(C)c1ccccc1)=N/NC(N)=O`: the survivor count under setting [3] is on record as 3 of 6.
Consider `COc1ccc(NC(=O)Oc2ccccn2)cc1`, for which the T/C (dose: 100.0 mg/kg/injection, schedule: Q01DX009 (ip), vehicle: carboxymethylcellulose (CMC)) is on record as 95, 97, 98, 113 % of control. In addition, the survivor count is 3 of 3 and 6 of 6 (dose: 200.0 mg/kg/injection, schedule: Q01DX009 (ip), vehicle: carboxymethylcellulose (CMC)); 0 of 3 and 3 of 6 (dose: 400.0 mg/kg/injection, schedule: Q01DX009 (ip), vehicle: carboxymethylcellulose (CMC)).
With `CCNC(C)(C)C(O)c1ccc(Cl)s1` (configuration not stated), the survivor count (dose: 400.0 mg/kg/injection, schedule: Q01DX009 (ip), vehicle: saline with Tween-80) is 0 of 6.
In the case of `CC(C)(F)C(Br)C(=O)O` (configuration not stated), the survivor count is listed as 3 of 3 (dose: 100.0 mg/kg/injection, schedule: Q04DX002 (ip), vehicle: saline with Tween-80) and 3 of 3 under setting [4].
On to `CC/C(=C/c1ccc(OC)c(OC)c1)[N+](=O)[O-]`, for which the survivor count (dose: 200.0 mg/kg/injection, schedule: Q04DX003 (ip), vehicle: Klucel (hydroxypropylcellulose) (HPC)) is 6 of 6.
Take `Oc1ccc2ccnc(Cc3ccc(Br)cc3)c2c1`: under “dose: 100.0 mg/kg/injection, schedule: Q01DX001 (ip), vehicle: Klucel (hydroxypropylcellulose) (HPC)”, the survivor count is 6 of 6.

The values above are taken from PubChem BioAssay AID248 (DTP/NCI, 2004).
